{"source": "patent US9867372B2", "about": "“Tetrazolinone compound and use of same” (SUMITOMO CHEMICAL COMPANY, LIMITED, priority 2013, dated 2018)", "note": "Some entries share one result that the patent states for a list of compounds."}
{"test_system": "cucumber powdery mildew fungus (Sphaerotheca fuliginea, a QoI-resistant strain, cytochrome b position 143 mutated from glycine to alanine)", "format": "in vivo", "details": "200 ppm, QoI-resistant strain (Test Example 2, Comparative Example 2)", "units": {"area of lesion spots on the treated plant relative to that on an untreated plant": "%"}}
{"smiles": "Cc1cccc(-n2nnn(C)c2=O)c1COc1cccc(-c2cnn(C)c2)n1", "note": "[compound 215, 1-methyl-4-{3-methyl-2-[6-(1-methyl-1H-pyrazol-4-yl)pyridin-2-yloxymethyl]-phenyl}-1,4-dihydrotetrazol-5-one]", "area of lesion spots on the treated plant relative to that on an untreated plant": "≤ 30"}
{"smiles": "Cc1cccc(-n2nnn(C)c2=O)c1COc1cccc(-c2ccc(Cl)s2)n1", "note": "[compound 217]", "area of lesion spots on the treated plant relative to that on an untreated plant": "≤ 30"}
{"smiles": "Cc1cccc(-n2nnn(C)c2=O)c1COc1cccc(-n2cccn2)n1", "note": "[compound 206, 1-methyl-4-{3-methyl-2-[2-(1H-pyrazol-1-yl)-pyridin-6-yloxymethyl]-phenyl}-1,4-dihydrotetrazol-5-one]", "area of lesion spots on the treated plant relative to that on an untreated plant": "≤ 30"}
{"test_system": "cucumber powdery mildew fungus (Sphaerotheca fuliginea, a QoI-resistant strain, cytochrome b position 143 mutated from glycine to alanine)", "format": "in vivo", "details": "500 ppm, QoI-resistant strain (Test Example 14)", "units": {"area of lesion spots on the treated plant relative to that on an untreated plant": "%"}}
{"smiles": "COc1ccc(OCc2c(C)cccc2-n2nnn(C)c2=O)cc1-c1ccccc1", "note": "[compound 136]", "area of lesion spots on the treated plant relative to that on an untreated plant": "≤ 30"}
{"smiles": "Cc1cccc(-n2nnn(C)c2=O)c1COc1cncc(-c2ccccc2)n1", "note": "[compound 27]", "area of lesion spots on the treated plant relative to that on an untreated plant": "≤ 30"}
{"smiles": "Cc1cccc(-n2nnn(C)c2=O)c1COc1cc(-c2ccccc2)ccc1Cl", "note": "[compound 128]", "area of lesion spots on the treated plant relative to that on an untreated plant": "≤ 30"}
{"smiles": "COc1cccc(-c2cccc(OCc3c(C)cccc3-n3nnn(C)c3=O)c2F)c1", "note": "[compound 111]", "area of lesion spots on the treated plant relative to that on an untreated plant": "≤ 30"}
{"smiles": "COc1ccccc1-c1cccc(OCc2c(C)cccc2-n2nnn(C)c2=O)c1", "note": "[compound 52]", "area of lesion spots on the treated plant relative to that on an untreated plant": "≤ 30"}
